The other results are listed elsewhere or left out. Further columns of the screen follow, without active or inactive calls. Most of these compounds were active or inconclusive in the main read-out, so they are no random draw. The note in brackets gives the kind of curve behind each potency; many fits are weak.
Assay: qHTS Assay for Lipid Storage Modulators in Drosophila S3 Cells;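 for cell number change: cells counted by Cell Tracker Red CMTPX staining in the red channel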
Settings: BODIPY lipid droplet fluorescence, 18-24 h; for cell number change: measured here: cell count max response, cells fed with added oleic acid
Outline: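 Laser-scanning cytometry quantifies lipid droplet accumulation (500–530 nm total intensity; droplet/cell object ratio) in oleic acid-fed (400 uM added) Drosophila S3 cells treated with a concentration series. 20 uM Triacsin C defined 100% inhibition.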

[1] = measured here: lipid fluorescence (Fed channel) AC50, cells fed with added oleic acid
[2] = measured here: cell number channel AC50, cells fed with added oleic acid

SMILES	cell number change [%]	AC50 [1]	AC50 [2]
N#CCSc1nnc(-c2ccccc2)c(-c2ccccc2)n1	-16.6	0.164 µM [rising, full curve, poor fit]	
Fc1cccc(CNCC2CCCO2)c1 (stereo not drawn)	-10.1	4.11 µM [rising, single point]	
CCOc1ccc(C(=O)Nc2ccc(CN3CCOCC3)cc2)cc1Cl	12.6		
Cc1ccc2cc(C)c3nnc(SCC(=O)c4cccs4)n3c2c1C	-1.51		
COc1ccc(OC)c(NC(=O)CS(=O)(=O)c2ccccc2)c1	6.02		
O=C(CCN1C(=O)C2C3C=CC(C3)C2C1=O)Nc1ccc(F)cc1 (stereo not drawn)	50.8	20.6 µM [rising, partial curve]	16.4 µM [rising, single point]
O=C(Nc1ccc(Nc2ccccc2)cc1)c1cc([N+](=O)[O-])ccc1Cl	-47		8.2 µM [falling, partial curve]
CCS(=O)(=O)Nc1ccc(C2=NN(C(=O)c3ccco3)C(c3ccco3)C2)cc1 (stereo not drawn)	79.5		8.2 µM [rising, partial curve]
COc1ccc(C(=O)/C=C2/c3ccccc3CC(C)(C)N2C)cc1OC	2.38	0.146 µM [rising, full curve, poor fit]	
Cc1cccc(CNC(=O)c2ccccc2NC(=O)C2=CSCCO2)c1	-33.3		18.4 µM [falling, single point]
COc1ccc(NS(=O)(=O)c2ccc3c(c2)CCCN3C(C)=O)cc1	14.1	29.1 µM [rising, single point]	
O=C(Cc1ccccc1)N/N=C/c1cc2c(cc1Cl)OCO2	1.09	0.731 µM [rising, partial curve]	
CC(=O)N1c2ccc(S(=O)(=O)NCCC(=O)N3CCCC(C)C3)cc2CC1C (stereo not drawn)	5.6		0.206 µM [rising, full curve, poor fit]
O=C(NNS(=O)(=O)c1ccc(F)cc1)C1CCN(S(=O)(=O)c2ccccc2)CC1	-10.8		
O=C(O)CC/C(=N\NC(=O)CNC(=O)c1ccc(F)cc1)c1ccccc1			0.731 µM [falling, single point]
CCCc1cc(=O)oc2c(CN3CCCC3)c(O)c(Cl)cc12			0.731 µM [rising, full curve, poor fit]
COc1nc(NCc2ccco2)nc(N2CCC(C)CC2)n1	-44.9	29.1 µM [falling, single point]	32.6 µM [falling, single point]
COCCN=C1Sc2nc3cc(C)c(C)cc3cc2CN1Cc1cccs1	-13.2		
CCc1ccccc1NC(=O)[C@@H]1CCC(=O)N1C1OC(=O)c2c1ccc(OC)c2OC (stereo partly drawn)	11	29.1 µM [falling, single point]	

Shown bar-delimited: two of the compounds above.
SMILES | cell number change [%] | AC50 [1] | AC50 [2]
COc1ccc(NS(=O)(=O)c2ccc3c(c2)CCCN3C(C)=O)cc1 | 14.1 | 29.1 µM [rising, single point] | 
CCc1ccccc1NC(=O)[C@@H]1CCC(=O)N1C1OC(=O)c2c1ccc(OC)c2OC (stereo partly drawn) | 11 | 29.1 µM [falling, single point] | 

— PubChem BioAssay AID2685 (National Center for Advancing Translational Sciences (NCATS), 2010)
